# Results of single-concentration screens

Chains of the proteins cited; added tags and fusions are not shown. Residues count along the entry.
UniProt P9WFT3, whole entry: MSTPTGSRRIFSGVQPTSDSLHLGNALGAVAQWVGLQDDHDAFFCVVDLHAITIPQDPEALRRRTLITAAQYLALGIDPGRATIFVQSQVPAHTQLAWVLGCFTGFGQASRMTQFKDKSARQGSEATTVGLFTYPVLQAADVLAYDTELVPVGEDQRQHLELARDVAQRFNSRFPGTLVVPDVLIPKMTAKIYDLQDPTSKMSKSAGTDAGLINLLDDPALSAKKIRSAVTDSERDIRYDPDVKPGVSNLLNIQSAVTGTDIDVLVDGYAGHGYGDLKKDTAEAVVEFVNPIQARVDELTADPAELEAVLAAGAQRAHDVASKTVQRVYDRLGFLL
UniProt P9WPC5, whole entry: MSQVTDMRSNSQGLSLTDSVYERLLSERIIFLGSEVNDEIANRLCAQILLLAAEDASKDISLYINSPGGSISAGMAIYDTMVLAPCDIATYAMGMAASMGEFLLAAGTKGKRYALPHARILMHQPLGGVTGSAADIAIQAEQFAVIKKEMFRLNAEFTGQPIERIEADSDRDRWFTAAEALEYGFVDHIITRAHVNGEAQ
UniProt P9WPC3, whole entry partner: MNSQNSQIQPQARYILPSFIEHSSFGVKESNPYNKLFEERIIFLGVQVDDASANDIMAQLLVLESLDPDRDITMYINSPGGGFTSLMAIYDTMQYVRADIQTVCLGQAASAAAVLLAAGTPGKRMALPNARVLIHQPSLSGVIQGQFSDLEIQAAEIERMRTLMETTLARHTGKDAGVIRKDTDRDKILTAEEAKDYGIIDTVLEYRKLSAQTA
UniProt Q8IDJ8, 1-583: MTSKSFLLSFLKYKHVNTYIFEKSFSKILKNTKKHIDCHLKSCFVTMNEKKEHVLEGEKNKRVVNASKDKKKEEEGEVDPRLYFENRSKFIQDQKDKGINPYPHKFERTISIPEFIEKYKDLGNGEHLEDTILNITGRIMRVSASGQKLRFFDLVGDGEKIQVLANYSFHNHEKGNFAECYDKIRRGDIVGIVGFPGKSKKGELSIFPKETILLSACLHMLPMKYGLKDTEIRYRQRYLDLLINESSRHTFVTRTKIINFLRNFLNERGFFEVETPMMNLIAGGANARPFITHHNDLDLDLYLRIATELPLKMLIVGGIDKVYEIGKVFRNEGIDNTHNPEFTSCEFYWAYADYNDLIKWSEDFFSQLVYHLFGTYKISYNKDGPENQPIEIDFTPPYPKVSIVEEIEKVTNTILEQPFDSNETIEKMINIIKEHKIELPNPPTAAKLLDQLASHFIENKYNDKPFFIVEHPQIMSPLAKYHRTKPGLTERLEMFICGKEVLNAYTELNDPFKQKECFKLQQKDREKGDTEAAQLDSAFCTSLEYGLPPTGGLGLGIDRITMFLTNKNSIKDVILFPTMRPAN
UniProt P9WNZ1, whole entry: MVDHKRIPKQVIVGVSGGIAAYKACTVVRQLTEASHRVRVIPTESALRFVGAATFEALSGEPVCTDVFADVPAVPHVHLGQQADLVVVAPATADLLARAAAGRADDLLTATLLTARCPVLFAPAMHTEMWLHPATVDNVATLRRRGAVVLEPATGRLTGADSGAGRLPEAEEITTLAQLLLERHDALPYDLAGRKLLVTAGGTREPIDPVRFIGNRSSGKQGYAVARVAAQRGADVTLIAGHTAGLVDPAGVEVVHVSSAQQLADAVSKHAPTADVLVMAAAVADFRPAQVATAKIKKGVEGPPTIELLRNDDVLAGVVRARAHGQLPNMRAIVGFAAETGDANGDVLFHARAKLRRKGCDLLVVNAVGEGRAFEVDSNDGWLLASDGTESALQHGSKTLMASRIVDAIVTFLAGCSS

Source: ChEMBL document CHEMBL3988442, “University of Dundee, Small-Polar-MMV Screening Library” (2021).

MtTrpRS: 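Tryptophan-tRNA ligase, Mycobacterium tuberculosis (UniProt P9WFT3). Enzyme assay of tryptophanyl-tRNA synthetase; the read-out is not stated. Compounds at 10 µM. Direction is not recorded; retested compounds ran higher, which suggests that high means inhibition. Size under these conditions: about 65,000 compounds, about 64 of them at 50% or above in at least one test.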
ClpP1P2: 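Protease assay of ClpP1P2, read by the AMC dye that it sets free. Target: ClpP1P2, Mycobacterium tuberculosis (UniProt P9WPC5 and UniProt P9WPC3). Compounds at 50 µM. Higher reads as stronger inhibition, judged from the few compounds that gave an IC50. Most other retested compounds had strongly negative values. About 69,000 compounds were tested under these conditions; 0.015% (about 10) showed 50% or more at least once.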
Leishmania in macrophages: 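Cell assay of Leishmania donovani living inside macrophages; the read-out is not stated. Compounds at 30 µM. Direction is inferred from retests: higher values go with stronger inhibition. About 69,000 compounds were tested under these conditions; 1.5% (about 1,000) showed 50% or more at least once.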
PfKRS1: 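Enzyme assay of the cytosolic lysyl-tRNA synthetase in 384-well plates, read by luminescence. Target: Lysine-tRNA ligase, Plasmodium falciparum 3D7 (UniProt Q8IDJ8). Concentration: 30 µM. Higher reads as stronger inhibition, judged from the few compounds that gave an IC50. About 69,000 compounds were tested under these conditions; 0.071% (about 49) showed 50% or more at least once.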
CoaBC: 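Coenzyme A biosynthesis protein CoaBC, Mycobacterium tuberculosis (UniProt P9WNZ1). Enzyme assay of CoaBC with a phosphate dye (Biomol Green) read at 650 nm. Concentration: 30 µM. Direction is inferred from only a few compounds that gave an IC50; most scored high, so higher reads as stronger inhibition. Most strong results did not repeat in a second test. Of about 67,000 compounds tested this way, about 40 (0.06%) reached 50% or more in at least one test.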

Results are given as percent effect.
How 0% and 100% were set is not recorded. Most values in the screen are low, and negative values occur.
The compounds are a random part of those screened.

{"smiles": "Cc1csc(N2CCCN(C(=O)c3cnns3)CC2)n1", "MtTrpRS": -3.97, "ClpP1P2": -3.71, "Leishmania in macrophages": -43.05, "PfKRS1": -3.027, "CoaBC": 0.3911}
{"smiles": "COc1ccc([C@@H]2CN(C(=O)CCc3cc(Cl)no3)C[C@H]2N(C)C)cc1", "MtTrpRS": 3.425, "ClpP1P2": -3.496, "Leishmania in macrophages": -21.15, "PfKRS1": 6.2, "CoaBC": -7.933}
{"smiles": "O=C(O)C(F)(F)F.O=C(O)C(F)(F)F.[H][C@@]12CCN(Cc3ccncc3)C(=O)[C@@]1([H])CN(Cc1ccc(C)s1)C2", "Leishmania in macrophages": 7.943}
{"smiles": "CCc1cc(CN(C)C(=O)c2cnon2)on1", "MtTrpRS": 1.083, "ClpP1P2": 4.169, "Leishmania in macrophages": 11.76, "PfKRS1": 4.188, "CoaBC": -17.01}
{"smiles": "O=C(O)C(F)(F)F.O=C(O)C(F)(F)F.[H][C@@]12CO[C@@H](CN(C)Cc3ccco3)[C@]1([H])CCN(Cc1nccs1)C2", "Leishmania in macrophages": 3}
{"smiles": "Cn1ncc(C(=O)OCC2CCN(c3ccccc3)C2)c1C(F)F", "stereo": "configuration not stated", "MtTrpRS": -5.218, "ClpP1P2": -7.069, "Leishmania in macrophages": -7.876, "PfKRS1": 4.973, "CoaBC": 1.266}
{"smiles": "COCCN1CCC(c2nc3ccc(N4CCCC4)cn3n2)CC1", "MtTrpRS": -0.8391, "ClpP1P2": -23.01, "PfKRS1": 6.96, "CoaBC": -17.49}
{"smiles": "Cc1nc(C2CCCN2C(=O)c2ccc3c(c2)nc(C)n3C)no1", "stereo": "configuration not stated", "MtTrpRS": -13.41, "ClpP1P2": 2.393, "Leishmania in macrophages": 5.958, "PfKRS1": -0.006707, "CoaBC": -1.828}
{"smiles": "COc1ccccc1C1SCC(=O)Nc2c1c(=O)[nH]n2C1CCCCC1", "stereo": "configuration not stated", "MtTrpRS": 1.848, "ClpP1P2": -6.382, "Leishmania in macrophages": 6.889, "PfKRS1": -3.457, "CoaBC": -2.358}
{"smiles": "CCOC(=O)N1CCN(C(=O)c2sc(-c3ccccc3F)nc2C)CC1", "MtTrpRS": 7.435, "ClpP1P2": -2.592, "Leishmania in macrophages": 34.84, "PfKRS1": 4.422, "CoaBC": 14.91}
{"smiles": "[H][C@@]12CS(=O)(=O)C[C@]1([H])N(Cc1nc3c(s1)CCCC3)CCN2C", "Leishmania in macrophages": 21.14}
{"smiles": "NC(=O)C1CCCN(c2ccc(CNC(=O)c3cc[nH]n3)cc2)C1", "stereo": "configuration not stated", "MtTrpRS": 17.64, "ClpP1P2": 19.11, "Leishmania in macrophages": -17.57, "PfKRS1": 0.7198, "CoaBC": 2.417}
{"smiles": "Cc1nccn1CCCN1CCCC(c2nccn2C)C1", "stereo": "configuration not stated", "MtTrpRS": -0.1514, "ClpP1P2": 14.82, "Leishmania in macrophages": 28.64, "PfKRS1": -1.132, "CoaBC": -2.265}
{"smiles": "O=C(Nc1ccccc1)C1=NOC2(CCCN(C(=O)N3CCCC3)C2)C1", "stereo": "configuration not stated", "MtTrpRS": 0.9982, "ClpP1P2": 10.96, "Leishmania in macrophages": 3.186, "PfKRS1": 4.051, "CoaBC": 0.2469}
{"smiles": "CCc1nc(CN2CCN(C(=O)C3CCCCC3)CC2)cs1", "MtTrpRS": 1.856, "ClpP1P2": 10.84, "Leishmania in macrophages": 12.64, "PfKRS1": 3.352, "CoaBC": 1.036}
{"smiles": "COc1c(C)cnc(CN2CCC(N(C)C(C)C(N)=O)CC2)c1C", "stereo": "configuration not stated", "MtTrpRS": -6.475, "ClpP1P2": 6.291, "Leishmania in macrophages": 33.7, "PfKRS1": 1.635, "CoaBC": 2.651}
{"smiles": "Cc1cnn(C2CCCN(C(=O)c3ccc(C(N)=O)cn3)C2)c1", "stereo": "configuration not stated", "MtTrpRS": 30.09, "ClpP1P2": -10.75, "Leishmania in macrophages": -24.22, "PfKRS1": -3.927, "CoaBC": 7.097}
{"smiles": "O=C(c1nnn(-c2ccc(F)cc2)n1)N1CCC(O)CC1", "MtTrpRS": 10.26, "ClpP1P2": -3.772, "Leishmania in macrophages": 1.215, "PfKRS1": -0.7356, "CoaBC": 11.21}
{"smiles": "COc1ccc(C(=O)N2CCC3(CCC(=O)N(C(C)C)C3)CC2)cc1C", "MtTrpRS": -6.518, "ClpP1P2": -1.092, "Leishmania in macrophages": 3.86, "PfKRS1": 2.428, "CoaBC": 3.782}
{"smiles": "CC(=O)N1CCOC(c2c(C(=O)NC(C)(C)C)sc3ccccc23)C1", "stereo": "configuration not stated", "MtTrpRS": -5.23, "ClpP1P2": 10.31, "Leishmania in macrophages": -5.677, "PfKRS1": 2.853, "CoaBC": -2.564}
{"smiles": "Cc1nc(C2(NCc3cc(C#N)ccc3F)CCCCC2)no1", "MtTrpRS": -1.548, "ClpP1P2": 5.608, "Leishmania in macrophages": -4.949, "PfKRS1": 0.6628}
{"smiles": "O=C(O)C(F)(F)F.[H][C@@]12CCN(C(=O)NC)CC[C@]1(C(=O)N1CCOCC1)CCN2CC", "Leishmania in macrophages": -4.627}
{"smiles": "CN1CCN(c2ccncc2S(=O)(=O)N2CCCCC2)CC1", "MtTrpRS": 3.661, "ClpP1P2": 1.937, "Leishmania in macrophages": 29.99, "PfKRS1": 3.768, "CoaBC": 8.439}
{"smiles": "O=C1CC(c2ccc(F)cc2)c2snc(C(=O)O)c2N1", "stereo": "configuration not stated", "MtTrpRS": -1.295, "ClpP1P2": -4.286, "Leishmania in macrophages": -1.316, "PfKRS1": 3.643, "CoaBC": -6.005}
{"smiles": "COC(=O)C1CN(Cc2cc(F)ccc2Br)CCO1", "stereo": "configuration not stated", "MtTrpRS": -1.398, "ClpP1P2": -0.8156, "Leishmania in macrophages": 19.95, "PfKRS1": 5.474, "CoaBC": 2.331}
{"smiles": "N#Cc1ccc(CN2CCN(C(=O)c3cc(C4CC4)[nH]n3)CC2)cc1", "MtTrpRS": -3.207, "ClpP1P2": 6.191, "Leishmania in macrophages": 47.32, "PfKRS1": 0.2242, "CoaBC": 13.49}
{"smiles": "CS(=O)(=O)NCc1cnc2n1CCN(Cc1cccnc1)CC2.O=C(O)C(F)(F)F.O=C(O)C(F)(F)F", "Leishmania in macrophages": 29.23}
{"smiles": "Cc1ccc(N2CCCC(NCC(=O)Nc3cc(C)nn3C)C2)nn1", "stereo": "configuration not stated", "MtTrpRS": 0.9939, "ClpP1P2": -2.226, "Leishmania in macrophages": 24.31, "PfKRS1": -0.8403, "CoaBC": 9.814}
{"smiles": "O=C(CN1CCCC1Cn1cccn1)NC1CCOCC1", "stereo": "configuration not stated", "MtTrpRS": -3.173, "ClpP1P2": -11.92, "Leishmania in macrophages": 8.031, "PfKRS1": 1.064, "CoaBC": -8.316}

Repeated from the top, 2 entries:

SMILES	MtTrpRS	ClpP1P2	Leishmania in macrophages	PfKRS1	CoaBC
Cc1csc(N2CCCN(C(=O)c3cnns3)CC2)n1	-3.97%	-3.71%	-43.05%	-3.027%	0.3911%
COc1ccc([C@@H]2CN(C(=O)CCc3cc(Cl)no3)C[C@H]2N(C)C)cc1	3.425%	-3.496%	-21.15%	6.2%	-7.933%